The values below come from paper PMC12454940.

Amino acid sequences for entries named in this document (tags omitted).
UniProt Q86WV6: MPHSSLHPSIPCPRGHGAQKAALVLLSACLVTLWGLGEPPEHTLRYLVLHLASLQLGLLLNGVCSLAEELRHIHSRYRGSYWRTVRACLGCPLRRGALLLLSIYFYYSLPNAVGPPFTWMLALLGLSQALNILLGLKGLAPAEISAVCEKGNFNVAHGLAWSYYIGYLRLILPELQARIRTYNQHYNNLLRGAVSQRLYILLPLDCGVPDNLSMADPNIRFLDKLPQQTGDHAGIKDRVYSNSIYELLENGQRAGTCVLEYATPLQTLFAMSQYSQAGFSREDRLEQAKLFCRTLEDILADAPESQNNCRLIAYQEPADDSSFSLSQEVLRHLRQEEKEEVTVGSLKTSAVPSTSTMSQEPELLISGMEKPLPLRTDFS
UniProt Q9UHK0: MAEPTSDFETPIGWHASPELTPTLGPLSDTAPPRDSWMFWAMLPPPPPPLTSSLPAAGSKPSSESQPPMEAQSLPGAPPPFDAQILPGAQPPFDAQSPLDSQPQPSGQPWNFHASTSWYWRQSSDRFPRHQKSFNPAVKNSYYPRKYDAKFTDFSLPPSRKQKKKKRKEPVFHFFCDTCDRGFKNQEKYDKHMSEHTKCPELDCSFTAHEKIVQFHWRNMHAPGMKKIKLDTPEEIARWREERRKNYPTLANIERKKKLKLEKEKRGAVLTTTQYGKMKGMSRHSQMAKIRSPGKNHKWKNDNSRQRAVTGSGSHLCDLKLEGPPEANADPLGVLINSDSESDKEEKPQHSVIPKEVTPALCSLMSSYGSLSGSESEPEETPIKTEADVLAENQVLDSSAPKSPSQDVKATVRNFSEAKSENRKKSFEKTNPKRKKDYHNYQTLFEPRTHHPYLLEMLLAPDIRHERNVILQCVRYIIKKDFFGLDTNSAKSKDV
UniProt Q9QXX8: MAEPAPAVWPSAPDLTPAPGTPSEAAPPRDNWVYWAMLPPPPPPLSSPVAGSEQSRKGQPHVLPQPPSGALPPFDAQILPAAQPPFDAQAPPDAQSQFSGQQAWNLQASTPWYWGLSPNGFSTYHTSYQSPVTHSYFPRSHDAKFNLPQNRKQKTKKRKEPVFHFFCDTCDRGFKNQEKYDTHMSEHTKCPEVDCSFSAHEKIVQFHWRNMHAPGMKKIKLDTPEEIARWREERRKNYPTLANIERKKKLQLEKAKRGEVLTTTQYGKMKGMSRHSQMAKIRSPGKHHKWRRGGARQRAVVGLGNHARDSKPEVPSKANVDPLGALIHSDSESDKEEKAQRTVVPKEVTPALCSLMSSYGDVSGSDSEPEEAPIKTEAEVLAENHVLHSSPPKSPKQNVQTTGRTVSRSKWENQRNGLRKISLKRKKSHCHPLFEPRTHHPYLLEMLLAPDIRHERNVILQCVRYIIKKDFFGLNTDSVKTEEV

No constants are given. Whether binding was seen depends on the method and setting. Binding seen in cells or lysates may run through a third protein. Some binding calls cover weakened binding; strength is not graded here.

The target in experiment [1] is T1, Z-nucleic acid binding protein 1 (ZBP1), in Jurkat T cells (human (endogenous in Jurkat)) (UniProt Q9H171).
T1 sequence: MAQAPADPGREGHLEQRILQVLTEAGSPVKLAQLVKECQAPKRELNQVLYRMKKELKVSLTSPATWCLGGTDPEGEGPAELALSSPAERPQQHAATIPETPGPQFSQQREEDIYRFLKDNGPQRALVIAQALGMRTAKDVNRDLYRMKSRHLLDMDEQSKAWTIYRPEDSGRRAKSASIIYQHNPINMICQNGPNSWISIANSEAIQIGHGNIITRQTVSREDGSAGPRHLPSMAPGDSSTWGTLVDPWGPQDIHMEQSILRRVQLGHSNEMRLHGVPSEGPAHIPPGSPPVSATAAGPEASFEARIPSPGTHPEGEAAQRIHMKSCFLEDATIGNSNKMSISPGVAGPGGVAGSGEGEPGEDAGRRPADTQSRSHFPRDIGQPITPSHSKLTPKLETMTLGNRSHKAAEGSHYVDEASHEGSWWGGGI
The experiment is described as follows: co-IP; Jurkat T cell lysate; specific antibody to the desired protein, protein A/G agarose beads overnight at low temperature, washes, elution in SDS loading buffer, Western blot; which protein was precipitated not given. A general note: A western blot detects proteins with antibodies after separation by electrophoresis.

For experiment [2], the target named is stimulator of interferon genes (STING), in Jurkat T cells (human (endogenous in Jurkat)) (UniProt Q86WV6). Described as above.
Experiment [3] concerns the target T2, Z-nucleic acid binding protein 1 (ZBP1), in mouse splenic CD4+ T lymphocytes (mouse (endogenous in splenic CD4+ T lymphocytes)) (UniProt Q9QY24).
T2 sequence: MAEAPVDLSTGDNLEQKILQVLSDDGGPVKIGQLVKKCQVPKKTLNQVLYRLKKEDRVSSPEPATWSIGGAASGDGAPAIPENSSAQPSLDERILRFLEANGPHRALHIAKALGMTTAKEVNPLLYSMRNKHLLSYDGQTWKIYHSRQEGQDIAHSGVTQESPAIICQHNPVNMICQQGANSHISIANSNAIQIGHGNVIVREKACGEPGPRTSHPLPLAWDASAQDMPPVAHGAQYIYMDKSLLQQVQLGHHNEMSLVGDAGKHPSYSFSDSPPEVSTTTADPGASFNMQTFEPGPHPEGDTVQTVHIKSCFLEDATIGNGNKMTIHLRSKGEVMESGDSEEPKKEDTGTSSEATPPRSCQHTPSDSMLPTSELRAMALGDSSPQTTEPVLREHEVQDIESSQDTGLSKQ
The experiment is described as follows: co-IP; lysate of primary CD4+ T lymphocytes from mouse spleen; specific antibody to the desired protein, protein A/G agarose beads overnight at low temperature, washes, elution in SDS loading buffer, Western blot; which protein was precipitated not given.

In experiment [4] the target is T3, stimulator of interferon genes (STING), in murine CD4+ T lymphocytes (mouse (endogenous in CD4+ T lymphocytes)) (UniProt Q3TBT3).
T3 sequence: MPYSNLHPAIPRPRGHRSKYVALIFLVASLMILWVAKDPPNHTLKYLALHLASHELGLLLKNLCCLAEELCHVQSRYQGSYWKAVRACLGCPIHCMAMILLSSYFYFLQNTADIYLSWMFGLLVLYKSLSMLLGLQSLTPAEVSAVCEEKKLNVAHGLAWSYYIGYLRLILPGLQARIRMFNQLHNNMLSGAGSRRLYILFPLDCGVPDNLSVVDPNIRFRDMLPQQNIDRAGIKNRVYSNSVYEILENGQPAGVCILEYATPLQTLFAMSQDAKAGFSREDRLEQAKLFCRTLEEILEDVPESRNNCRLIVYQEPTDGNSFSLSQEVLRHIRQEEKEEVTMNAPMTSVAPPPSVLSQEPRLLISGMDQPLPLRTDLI
Described as above.

With “nuclear fragile X mental retardation-interacting protein 1 (NUFIP1), in Jurkat T cells (from UniProt Q9UHK0 1-495)”, the binding entry in experiment [1] and in experiment [2] was “binds” throughout.

Consider “nuclear fragile X mental retardation-interacting protein 1 (NUFIP1), in mouse splenic CD4+ T lymphocytes (from UniProt Q9QXX8 1-484)”, for which the binding entry in experiment [3] and in experiment [4] was “binds” throughout.
